PubChem BioAssay AID652259 – Drosophila RNAi Screening Center, 2013
In all, the deposit lists about 22,000 reagents; this is a random part of those with a known target gene and a result. In the full data, 233 (1.1%) were called active. 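Light values are raw, unnormalised plate reads; the ratio scores behind the reporter calls were not deposited.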 A number with no mark means an inactive call. The numbers tell different reagents against one gene apart. Names joined by + are all predicted targets of the reagent. Not given: the amount of reagent, the time to read-out, the dose of the treatment.

Assay: 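Knock-downs that push a Wingless-driven reporter up or down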 (primary screen)
Cells: Drosophila clone 8 imaginal disc epithelial cells
Knock-down reagent: long dsRNA against Drosophila genes
Conditions: pathway stimulated by co-transfected Wingless expression plasmid
Detection: 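Dual luciferase reads per well after Wingless plasmid stimulation: reporter firefly light and Renilla control light; activity is firefly divided by Renilla, a ratio not deposited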
Reading the numbers: firefly reporter light: higher = more Wg reporter light, before normalisation; Renilla control light: higher = more transfected or surviving cells
Rule for the call: 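a knock-down is a candidate when at least two out of four statistical tests show it departing from its plate mean; one test alone signals a weak candidate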
Calls: active = candidate regulator (raises or lowers reporter); inactive = not a candidate

target gene,dsRNA no.,"reporter change call, replicate 1","firefly reporter light, replicate 1","firefly reporter light, replicate 2","Renilla control light, replicate 1","Renilla control light, replicate 2"
EloB (Elongin B),1,,19573,,4762,
U2af38 (U2 small nuclear riboprotein auxiliary factor 38),1,,14185,,2381,
numb,1,,13293,,3411,
mbl (muscleblind),1,,18631,,11152,
mbl (muscleblind),2,Wg reporter activity raised (active),16252,,1316,
mbl (muscleblind),3,,4177,,1143,
frac (faulty attraction),1,,3308,,976,
tzn (tenzing norgay),1,,4081,,2167,
Fs (Follistatin),1,,10138,,2533,
Fs (Follistatin),2,,5280,,1688,
CG5916,1,,3334,5095,801,2027
CG7402,1,,5961,,3163,
Gr36a (Gustatory receptor 36a),1,,4.99e5,4.83e5,2.21e5,2.10e5
Spn88Ea (Serpin 88Ea),1,,10659,,2209,
Trf4-2 (Topoisomerase related function 4-2),1,,18493,,15778,
Mgat1,1,,5210,,2197,
CG11370,1,,9974,,2982,
"Jarid2 (Jumonji, AT rich interactive domain 2)",1,,9680,,2281,
CG5835,1,,11856,,3254,
CG11699,1,,24439,,10180,
l(1)G0020 (lethal (1) G0020),1,,27158,,13176,
CG8778,1,,4912,,1537,
AANATL5 (Arylalkylamine N-acetyltransferase-like 5),1,,6672,,2460,
Non2 (Novel nucleolar protein 2),1,,18141,,6226,
CG3281,1,,10596,,5026,
CG3556,1,,4123,10072,1921,2868
Gr33a (Gustatory receptor 33a),1,,1351,4071,800,1916
IntS1 (Integrator 1),1,,6691,,3544,
RhoGDI,1,,8992,,3313,
CG17258,1,,4665,11793,2018,4658
CG17258,2,,8.78e5,8.61e5,4.40e5,1.53e5
alphaTub85E (alpha-Tubulin at 85E),1,,8037,,1760,
CG10505,1,,3211,9924,738,3088
CG8677 + CG31626,1,,12672,,14598,
OtopLa (Otopetrin-like a),1,,26470,7.37e5,9013,1.84e5
OtopLa (Otopetrin-like a),2,,26297,,12184,
rpk (ripped pocket),1,,10768,,3339,
rpk (ripped pocket),2,,3.92e5,3.91e5,1.86e5,1.65e5
asRNA:CR31514 + CG12947,1,,15876,,3191,
CG13010,1,,24232,,11296,
Plekhm1 (Pleckstrin homology and RUN domain containing M1),1,,2164,6864,593,2252
SMC2 (Structural maintenance of chromosomes 2),1,,12945,,3811,
CG9394,1,,2162,9341,487,3996
rdgC (retinal degeneration C),1,,10424,,2321,
ckn (caskin),1,,13856,,3681,
ct (cut),1,,14246,,7520,
CG42561,1,,18481,,11107,
Agpat4 (1-Acylglycerol-3-phosphate O-acyltransferase 4),1,,5754,,2869,
SkpA (SKP1-related A),1,Wg reporter activity raised (active),11418,20736,708,1106

3 of these entries, reformatted.
{"target gene": "CG8677 + CG31626", "dsRNA no.": 1, "firefly reporter light, replicate 1": 12672, "Renilla control light, replicate 1": 14598}
{"target gene": "OtopLa (Otopetrin-like a)", "dsRNA no.": 1, "firefly reporter light, replicate 1": 26470, "firefly reporter light, replicate 2": 7.37e5, "Renilla control light, replicate 1": 9013, "Renilla control light, replicate 2": 1.84e5}
{"target gene": "OtopLa (Otopetrin-like a)", "dsRNA no.": 2, "firefly reporter light, replicate 1": 26297, "Renilla control light, replicate 1": 12184}
